Tested on: platelet aggregation / thrombus formation
Test: Progressive shear gradient flow model: whole blood over collagen type I patches in straight channels
Type: cell-based, human
From the text: Fluid dynamics were simulated with a COMSOL Multiphysics 4.2 laminar flow module applied to three-dimensional meshes. For all simulations, no-slip boundary conditions and Newtonian fluids were assumed. To obtain meshes from the plain channel geometries, channel dimensions were taken from the original computer-aided design (CAD) files and reconstructed in COMSOL. To obtain meshes from platelet aggregate geometries, confocal fluorescence microscopy image z-stacks of labeled platelets were processed in ImageJ. Each image in a z-stack was converted into a binary image by thresholding, and an x-y heightmap was constructed by summing all binary data in a z-stack followed by multiplying the result with the height of the original z-stack as documented by the confocal microscope. […] Input flow parameters were set based on pump settings as used in the experiments, and were adjusted to account for the reduced width of the fluorescence aggregate meshes compared to the full channel geometries. […]
Citrated whole blood was incubated with DiOC6 (0.5 µg ml^-1) (Sigma-Aldrich Co, St. Louis, MO, USA) and drawn through microfluidic channels by a programmable syringe pump (Legato 130, KD Scientific, USA). […] Platelet deposition was recorded over time (2 frames per minute) for up to 20 minutes and quantified in ImageJ using a Z-projection of the acquired signal.

B1: scFv A1: single chain antibody combining variable heavy chain of mAb CR1 with variable light chain of mAb CR2; VH SEQ ID NO: 11, VL SEQ ID NO: 10 (antibody, V domains shown)
VH: QVQLQQPGAELVRPGASVKLSCKASGYSFTNYWMSWVKQRPGQGLEWIGMIHPSDSDTRLNQKFKDKATLTVDKSSSTAYMQLSSPTSEDSAGLLLCKKFEGWLPVLLGPRHHSHSLLS
VL: DIELTQSPASLAVSLGQSYRASCKSVSTSGYSYMHWNQQKPGQPPRLLIYLVSNLESGVPARFSGSGSGTDFTLNIHPVEEEDAATYYCQHIRELTRSEGDQAEINR
modifications: scFv linker; Mouse
Calculated maximum shear rate gradient (CFD on platelet aggregates, control 4.9): 3.1 s^-1/µm
Aggregate surface shear rates at the front area (CFD analysis) (scFv A1 5 µg ml^-1, 1,000 s^-1): reduced aggregate surface shear rates

Reference: patent US20230227580A1, “ANTI-VWF ANTIBODIES AND USES THEREOF” (MONASH UNIVERSITY, priority 2020, published 2023)
